Assay results: paper PMC7037221
Changes are numbered by the printed parent chain. Results are given in words; binding and its absence hold for the method and conditions named. Binding seen in cells or lysates may run through a third protein. Some binding calls cover weakened binding; strength is not graded here. For some of these results: Tags and fused reporters may be left off the sequences shown.

The chains behind the UniProt entries cited, without tags or fusion partners. Where a name states a change or a piece, a line headed by the entry shows the natural chain unless it says otherwise.
UniProt Q149N8: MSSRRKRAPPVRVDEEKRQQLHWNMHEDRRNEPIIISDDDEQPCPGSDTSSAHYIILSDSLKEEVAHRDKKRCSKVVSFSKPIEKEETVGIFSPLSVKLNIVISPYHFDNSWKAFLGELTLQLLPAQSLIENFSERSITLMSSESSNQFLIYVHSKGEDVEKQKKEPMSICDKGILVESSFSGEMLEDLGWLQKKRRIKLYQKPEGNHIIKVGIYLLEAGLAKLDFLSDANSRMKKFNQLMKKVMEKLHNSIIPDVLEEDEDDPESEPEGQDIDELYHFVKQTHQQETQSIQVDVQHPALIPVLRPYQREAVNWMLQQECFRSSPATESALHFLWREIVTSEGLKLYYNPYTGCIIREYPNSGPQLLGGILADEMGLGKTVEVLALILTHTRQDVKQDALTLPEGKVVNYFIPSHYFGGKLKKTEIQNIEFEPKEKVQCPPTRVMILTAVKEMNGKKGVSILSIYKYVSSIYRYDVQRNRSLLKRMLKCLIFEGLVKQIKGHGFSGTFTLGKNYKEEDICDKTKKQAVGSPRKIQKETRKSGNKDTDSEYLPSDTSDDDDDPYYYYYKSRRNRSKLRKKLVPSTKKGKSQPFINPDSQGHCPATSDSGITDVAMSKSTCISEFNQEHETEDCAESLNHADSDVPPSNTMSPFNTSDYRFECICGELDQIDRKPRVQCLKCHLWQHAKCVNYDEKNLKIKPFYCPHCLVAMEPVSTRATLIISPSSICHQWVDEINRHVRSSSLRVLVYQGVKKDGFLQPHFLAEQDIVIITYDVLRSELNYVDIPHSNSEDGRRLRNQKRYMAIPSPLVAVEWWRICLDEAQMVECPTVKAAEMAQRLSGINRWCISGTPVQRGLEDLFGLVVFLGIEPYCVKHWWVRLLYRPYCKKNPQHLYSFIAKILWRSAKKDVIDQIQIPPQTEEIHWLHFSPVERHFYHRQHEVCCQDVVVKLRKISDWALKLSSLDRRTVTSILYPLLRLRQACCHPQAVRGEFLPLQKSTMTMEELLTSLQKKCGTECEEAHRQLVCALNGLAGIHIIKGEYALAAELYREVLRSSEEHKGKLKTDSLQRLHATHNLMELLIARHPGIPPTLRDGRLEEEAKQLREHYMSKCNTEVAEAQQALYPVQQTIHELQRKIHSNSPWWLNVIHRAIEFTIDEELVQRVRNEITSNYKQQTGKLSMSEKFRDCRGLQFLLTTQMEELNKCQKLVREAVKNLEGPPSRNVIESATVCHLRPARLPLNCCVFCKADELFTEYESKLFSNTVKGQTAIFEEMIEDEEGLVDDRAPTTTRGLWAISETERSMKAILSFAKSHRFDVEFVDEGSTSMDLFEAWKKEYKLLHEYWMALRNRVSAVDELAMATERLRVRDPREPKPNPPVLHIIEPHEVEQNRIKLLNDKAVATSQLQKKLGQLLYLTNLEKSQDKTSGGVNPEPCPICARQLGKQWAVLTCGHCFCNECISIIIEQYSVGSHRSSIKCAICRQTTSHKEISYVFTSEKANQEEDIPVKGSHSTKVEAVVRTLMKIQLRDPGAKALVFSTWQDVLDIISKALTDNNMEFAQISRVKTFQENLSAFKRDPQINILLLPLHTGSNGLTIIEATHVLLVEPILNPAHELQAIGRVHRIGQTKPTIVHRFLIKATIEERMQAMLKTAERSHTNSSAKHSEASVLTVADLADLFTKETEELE
UniProt P12004: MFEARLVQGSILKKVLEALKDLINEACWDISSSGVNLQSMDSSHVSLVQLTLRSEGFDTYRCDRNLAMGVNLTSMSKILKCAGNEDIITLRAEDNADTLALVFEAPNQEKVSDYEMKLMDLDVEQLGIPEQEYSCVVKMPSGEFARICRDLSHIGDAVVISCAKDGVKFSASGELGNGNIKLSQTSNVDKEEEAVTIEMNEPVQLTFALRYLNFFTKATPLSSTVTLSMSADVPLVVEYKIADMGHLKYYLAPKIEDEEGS

Key:
Test in all cases: co-IP; HEK293T cells transfected, treated with 50 uM MMS, intact cells gently cross-linked with 0.2% formaldehyde; extract incubated with anti-GFP antibody-coupled protein A paramagnetic beads in IP buffer (20 mM Hepes pH 7.9, 100 mM KCl) at 4 C overnight; cross-links reversed; blot for endogenous PCNA, normalised against total GFP pulled down
[1] = biological target: GFP-SHPRH (SNF2, histone-linker, PHD and RING finger domain-containing helicase, wild type) (human) (UniProt Q149N8)
[2] = biological target: GFP-SHPRH F1632A (APIM mutant) (human) (UniProt Q149N8)
[3] = biological target: T1, YFP-HLTF (helicase-like transcription factor, wild type) (human) (UniProt Q14527)
T1 sequence: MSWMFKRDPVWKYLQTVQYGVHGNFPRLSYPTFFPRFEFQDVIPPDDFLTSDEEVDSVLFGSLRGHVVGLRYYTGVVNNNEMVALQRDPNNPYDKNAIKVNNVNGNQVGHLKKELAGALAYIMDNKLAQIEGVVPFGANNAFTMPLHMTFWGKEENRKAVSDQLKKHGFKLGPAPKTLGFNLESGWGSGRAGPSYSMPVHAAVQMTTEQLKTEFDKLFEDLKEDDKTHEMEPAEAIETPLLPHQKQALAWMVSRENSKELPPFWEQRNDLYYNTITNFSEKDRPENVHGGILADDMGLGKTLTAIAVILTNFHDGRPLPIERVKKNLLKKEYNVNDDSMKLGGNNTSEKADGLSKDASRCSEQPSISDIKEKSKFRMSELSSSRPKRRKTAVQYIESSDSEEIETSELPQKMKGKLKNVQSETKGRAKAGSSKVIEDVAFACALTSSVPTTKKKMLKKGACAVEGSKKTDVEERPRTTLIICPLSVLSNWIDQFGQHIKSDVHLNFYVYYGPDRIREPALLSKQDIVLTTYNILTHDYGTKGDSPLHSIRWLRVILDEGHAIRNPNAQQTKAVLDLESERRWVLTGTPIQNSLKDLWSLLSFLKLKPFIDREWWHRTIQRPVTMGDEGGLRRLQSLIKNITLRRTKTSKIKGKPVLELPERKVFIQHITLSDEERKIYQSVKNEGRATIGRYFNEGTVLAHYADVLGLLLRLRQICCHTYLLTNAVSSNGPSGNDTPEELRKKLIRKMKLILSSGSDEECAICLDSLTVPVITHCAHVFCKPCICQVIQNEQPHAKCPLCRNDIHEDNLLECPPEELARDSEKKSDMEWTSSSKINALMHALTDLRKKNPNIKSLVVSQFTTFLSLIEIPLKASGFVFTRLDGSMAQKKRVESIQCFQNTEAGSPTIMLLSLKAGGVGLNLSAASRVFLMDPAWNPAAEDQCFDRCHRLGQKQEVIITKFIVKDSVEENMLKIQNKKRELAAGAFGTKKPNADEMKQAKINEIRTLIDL

[4] = biological target: T2, YFP-HLTF F960A (APIM mutant) (human) (UniProt Q14527)
T2 sequence: T1 sequence with F960A

Measured: binding

Proliferating cell nuclear antigen (PCNA), endogenous (from UniProt P12004 1-261)
binds: all assays above
